Experimental data from publication PMC8277857.
These are yes or no findings as the source states them, for the method shown. In cells and extracts the contact can be indirect. Some entries that bind do so weakly or less than the wild type.

Protein sequences, listed by entry. Tags and fused reporters are not part of them. Residues count along the entry.
UniProt P51784: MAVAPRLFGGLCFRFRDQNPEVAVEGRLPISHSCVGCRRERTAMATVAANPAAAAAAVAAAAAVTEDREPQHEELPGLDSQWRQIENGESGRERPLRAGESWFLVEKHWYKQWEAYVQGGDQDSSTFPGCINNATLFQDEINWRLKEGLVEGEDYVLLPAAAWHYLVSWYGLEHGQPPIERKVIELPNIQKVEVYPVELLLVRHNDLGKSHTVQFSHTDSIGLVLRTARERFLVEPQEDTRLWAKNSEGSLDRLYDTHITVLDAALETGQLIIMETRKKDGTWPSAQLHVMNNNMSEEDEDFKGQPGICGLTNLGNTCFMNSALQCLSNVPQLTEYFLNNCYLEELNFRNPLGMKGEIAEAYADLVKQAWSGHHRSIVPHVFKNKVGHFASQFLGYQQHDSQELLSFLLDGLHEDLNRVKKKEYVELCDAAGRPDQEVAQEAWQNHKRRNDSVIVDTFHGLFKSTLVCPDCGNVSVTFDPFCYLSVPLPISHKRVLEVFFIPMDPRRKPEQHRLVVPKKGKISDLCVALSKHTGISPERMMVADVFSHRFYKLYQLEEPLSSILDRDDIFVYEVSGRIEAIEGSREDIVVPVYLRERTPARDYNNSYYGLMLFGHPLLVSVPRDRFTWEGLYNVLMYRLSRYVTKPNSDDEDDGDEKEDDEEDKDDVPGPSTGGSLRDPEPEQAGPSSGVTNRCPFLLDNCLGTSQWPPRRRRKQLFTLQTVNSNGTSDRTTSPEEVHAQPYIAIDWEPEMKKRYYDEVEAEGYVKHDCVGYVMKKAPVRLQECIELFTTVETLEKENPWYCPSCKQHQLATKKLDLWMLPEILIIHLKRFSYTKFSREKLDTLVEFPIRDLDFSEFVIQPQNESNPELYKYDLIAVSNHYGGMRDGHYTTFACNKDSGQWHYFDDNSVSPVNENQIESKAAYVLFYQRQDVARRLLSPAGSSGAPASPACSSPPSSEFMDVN
UniProt P11021, residues 19-654: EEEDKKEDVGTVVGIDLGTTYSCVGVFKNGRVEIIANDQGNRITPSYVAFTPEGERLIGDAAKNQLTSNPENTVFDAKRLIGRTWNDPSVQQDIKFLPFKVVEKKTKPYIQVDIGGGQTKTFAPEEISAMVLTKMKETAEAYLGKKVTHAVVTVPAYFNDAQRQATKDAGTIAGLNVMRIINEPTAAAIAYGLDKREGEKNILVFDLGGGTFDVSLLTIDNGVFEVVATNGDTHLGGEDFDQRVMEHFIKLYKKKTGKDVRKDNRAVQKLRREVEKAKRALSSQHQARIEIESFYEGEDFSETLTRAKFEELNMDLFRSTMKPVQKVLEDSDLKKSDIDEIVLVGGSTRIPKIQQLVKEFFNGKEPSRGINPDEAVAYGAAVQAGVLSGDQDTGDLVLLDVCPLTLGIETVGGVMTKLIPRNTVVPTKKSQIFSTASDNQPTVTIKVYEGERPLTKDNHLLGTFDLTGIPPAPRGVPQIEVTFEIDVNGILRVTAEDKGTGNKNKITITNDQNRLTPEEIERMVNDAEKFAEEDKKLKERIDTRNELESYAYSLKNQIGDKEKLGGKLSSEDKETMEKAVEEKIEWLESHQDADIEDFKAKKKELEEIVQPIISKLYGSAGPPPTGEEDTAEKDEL

Legend:
[1] = molecular target: USP11 (in vivo Co-IP assay) (UniProt P51784); test: co-IP; in vivo Co-IP assay of USP11 and BIP; cells not given
[2] = molecular target: Myc-tagged USP11 (UniProt P51784); test: co-IP; Myc-tagged USP11 and Flag-tagged BIP co-expressed in HEK293T cells; precipitated in both directions
[3] = molecular target: GST-tagged BIP (UniProt P11021); test: pull-down; GST pull-down in vitro with bacterially expressed GST-tagged BIP and Flag-tagged USP11
[4] = molecular target: Flag-tagged BIP (UniProt P11021); test: co-IP; Myc-tagged USP11 and Flag-tagged BIP co-expressed in HEK293T cells; precipitated in both directions

In the case of “BIP (in vivo Co-IP assay) (from UniProt P11021 19-654)”, the binding [1] is reported as “binds”.
In the case of “Flag-tagged BIP (from UniProt P11021 19-654)”, the binding [2] is reported as “binds”.
With “Flag-tagged USP11 (from UniProt P51784 1-963) (enzyme)” the binding [3] was “binds”.
For “Myc-tagged USP11 (from UniProt P51784 1-963) (enzyme)”, the binding [4] was “binds”.
